The target of test [1] is T1, heterogeneous nuclear ribonucleoprotein R (hnRNP R) (mouse (endogenous in primary motoneurons)) (UniProt Q8VHM5).
T1 sequence: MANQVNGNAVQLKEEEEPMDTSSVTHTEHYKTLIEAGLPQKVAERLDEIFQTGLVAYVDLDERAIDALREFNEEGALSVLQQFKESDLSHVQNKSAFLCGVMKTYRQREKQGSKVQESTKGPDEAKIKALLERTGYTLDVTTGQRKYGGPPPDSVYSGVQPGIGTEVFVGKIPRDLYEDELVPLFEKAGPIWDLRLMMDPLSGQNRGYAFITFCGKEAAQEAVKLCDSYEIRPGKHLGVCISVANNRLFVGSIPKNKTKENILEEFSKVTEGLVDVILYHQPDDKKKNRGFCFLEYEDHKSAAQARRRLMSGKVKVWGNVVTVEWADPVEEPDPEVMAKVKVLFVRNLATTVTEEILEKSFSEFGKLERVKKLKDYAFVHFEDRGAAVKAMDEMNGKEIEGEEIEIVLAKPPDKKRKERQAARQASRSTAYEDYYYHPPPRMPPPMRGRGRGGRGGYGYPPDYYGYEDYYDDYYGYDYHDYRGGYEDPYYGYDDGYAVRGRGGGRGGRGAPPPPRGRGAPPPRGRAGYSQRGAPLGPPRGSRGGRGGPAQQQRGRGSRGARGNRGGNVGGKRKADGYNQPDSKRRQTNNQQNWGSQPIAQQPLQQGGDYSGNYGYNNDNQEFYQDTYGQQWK
Kind of test: proximity ligation; Duolink In Situ PLA on fixed, permeabilised cultured mouse motoneurons (Hnrnpr +/+ and -/-; some treated with DMSO, TMG or OSMI-1), pairs of primary antibodies against the two endogenous proteins.

The chains behind the UniProt entries cited, without tags or fusion partners.
UniProt Q6ZWX6: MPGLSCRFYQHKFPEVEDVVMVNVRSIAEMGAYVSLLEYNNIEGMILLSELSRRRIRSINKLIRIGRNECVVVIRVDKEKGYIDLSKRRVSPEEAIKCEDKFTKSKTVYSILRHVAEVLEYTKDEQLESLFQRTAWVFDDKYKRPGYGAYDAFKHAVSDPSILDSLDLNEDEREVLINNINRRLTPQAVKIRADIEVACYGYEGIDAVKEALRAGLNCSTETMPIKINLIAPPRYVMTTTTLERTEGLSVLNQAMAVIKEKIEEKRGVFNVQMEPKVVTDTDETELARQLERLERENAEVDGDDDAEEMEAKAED

The target of test [2] is T1, heterogeneous nuclear ribonucleoprotein R (hnRNP R) (mouse (endogenous in primary motoneurons)). Kind of test: co-IP; anti-hnRNP R antibody on magnetic Dynabeads Protein A or G, whole lysate of primary mouse motoneurons (DIV 7), without or with Benzonase; lysis 10 mM HEPES pH 7.0, 100 mM KCl, 5 mM MgCl2, 0.5% NP-40; overnight at 4 °C; immunoblot. For orientation: In western blotting, separated proteins are transferred to a membrane and probed.

Test [3] shares this target. As to the kind of experiment: proximity ligation; Duolink In Situ PLA on fixed, permeabilised cultured mouse motoneurons (Hnrnpr +/+ and -/-; some treated with DMSO, TMG or OSMI-1), pairs of primary antibodies against the two endogenous proteins. The source holds these as a separate data set.
For test [4] the target is unchanged. As to the kind of experiment: co-IP; anti-hnRNP R immunoprecipitation from axonal lysate of compartmentalised motoneurons, immunoblot for Ogt.
The target is the same in test [5]. As to the kind of experiment: co-IP; anti-hnRNP R immunoprecipitation from somatodendritic lysate of compartmentalised motoneurons, immunoblot for Ogt.

These are yes or no findings as the source states them, for the method shown. Binding seen in cells or lysates may run through a third protein. Some entries that bind do so weakly or less than the wild type. For some assays here: Tags and fused reporters may be left off the sequences shown.

Regarding eIF2α (from UniProt Q6ZWX6 1-315), the binding result in test [1] and in test [2] was “binds” each time.

B1: O-linked β-N-acetylglucosamine (O-GlcNAc) transferase (Ogt) (enzyme, UniProt Q8CGY8 1-1046)
chain: MASSVGNVADSTEPTKRMLSFQGLAELAHREYQAGDFEAAERHCMQLWRQEPDNTGVLLLLSSIHFQCRRLDRSAHFSTLAIKQNPLLAEAYSNLGNVYKERGQLQEAIEHYRHALRLKPDFIDGYINLAAALVAAGDMEGAVQAYVSALQYNPDLYCVRSDLGNLLKALGRLEEAKACYLKAIETQPNFAVAWSNLGCVFNAQGEIWLAIHHFEKAVTLDPNFLDAYINLGNVLKEARIFDRAVAAYLRALSLSPNHAVVHGNLACVYYEQGLIDLAIDTYRRAIELQPHFPDAYCNLANALKEKGSVAEAEDCYNTALRLCPTHADSLNNLANIKREQGNIEEAVRLYRKALEVFPEFAAAHSNLASVLQQQGKLQEALMHYKEAIRISPTFADAYSNMGNTLKEMQDVQGALQCYTRAIQINPAFADAHSNLASIHKDSGNIPEAIASYRTALKLKPDFPDAYCNLAHCLQIVCDWTDYDERMKKLVSIVAEQLEKNRLPSVHPHHSMLYPLSHGFRKAIAERHGNLCLDKINVLHKPPYEHPKDLKLSDGRLRVGYVSSDFGNHPTSHLMQSIPGMHNPDKFEVFCYALSPDDGTNFRVKVMAEANHFIDLSQIPCNGKAADRIHQDGIHILVNMNGYTKGARNELFALRPAPIQAMWLGYPGTSGALFMDYIITDQETSPAEVAEQYSEKLAYMPHTFFIGDHANMFPHLKKKAVIDFKSNGHIYDNRIVLNGIDLKAFLDSLPDVKIVKMKCPDGGDNPDSSNTALNMPVIPMNTIAEAVIEMINRGQIQITINGFSISNGLATTQINNKAATGEEVPRTIIVTTRSQYGLPEDAIVYCNFNQLYKIDPSTLQMWANILKRVPNSVLWLLRFPAVGEPNIQQYAQNMGLPQNRIIFSPVAPKEEHVRRGQLADVCLDTPLCNGHTTGMDVLWAGTPMVTMPGETLASRVAASQLTCLGCLELIAKSRQEYEDIAVKLGTDLEYLKKIRGKVWKQRISSPLFNTKQYTMELERLYLQMWEHYAAGNKPDHMIKPVEVTESA
As to B1, the binding entry in test [3] is reported as “binds”; in test [4], “binds”; in test [5] it was “no binding (condition: somatodendritic compartment lysate)”.

For the origin of these results see article PMC11358521.
